Assay results published in publication PMC9616960.
No constants are given. Whether binding was seen depends on the method and setting. Binding seen in cells or lysates may run through a third protein. These calls come from enrichment with a bait or labelling near it, and not all partners need be listed.

Chains of the proteins cited; added tags and fusions are not shown. Residues count along the entry.
UniProt P18910, residues 29-1057: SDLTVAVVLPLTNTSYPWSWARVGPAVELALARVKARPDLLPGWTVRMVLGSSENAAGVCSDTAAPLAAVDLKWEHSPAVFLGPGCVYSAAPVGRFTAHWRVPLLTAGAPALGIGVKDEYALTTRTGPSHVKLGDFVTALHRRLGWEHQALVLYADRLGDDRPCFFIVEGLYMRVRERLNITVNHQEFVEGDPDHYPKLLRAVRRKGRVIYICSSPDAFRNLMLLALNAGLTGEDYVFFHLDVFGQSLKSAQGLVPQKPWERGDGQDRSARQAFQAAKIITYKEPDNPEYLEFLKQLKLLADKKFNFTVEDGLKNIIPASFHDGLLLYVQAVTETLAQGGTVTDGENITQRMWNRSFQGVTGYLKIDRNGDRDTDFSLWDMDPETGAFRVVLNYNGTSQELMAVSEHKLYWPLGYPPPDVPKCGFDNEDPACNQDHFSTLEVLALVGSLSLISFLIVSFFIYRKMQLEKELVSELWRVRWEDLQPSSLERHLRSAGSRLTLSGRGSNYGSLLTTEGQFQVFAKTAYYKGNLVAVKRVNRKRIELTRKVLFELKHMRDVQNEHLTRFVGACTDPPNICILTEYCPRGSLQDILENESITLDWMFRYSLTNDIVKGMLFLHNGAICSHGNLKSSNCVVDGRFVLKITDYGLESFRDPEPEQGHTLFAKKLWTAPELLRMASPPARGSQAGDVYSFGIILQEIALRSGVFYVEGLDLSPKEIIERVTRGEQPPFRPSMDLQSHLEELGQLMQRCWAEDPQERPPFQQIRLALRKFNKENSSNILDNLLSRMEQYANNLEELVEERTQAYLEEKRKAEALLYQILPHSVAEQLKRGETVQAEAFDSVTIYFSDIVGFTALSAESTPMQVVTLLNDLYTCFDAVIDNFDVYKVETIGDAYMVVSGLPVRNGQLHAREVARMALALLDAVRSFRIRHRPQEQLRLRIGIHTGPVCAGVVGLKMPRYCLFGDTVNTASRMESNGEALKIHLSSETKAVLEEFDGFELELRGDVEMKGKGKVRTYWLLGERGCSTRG
UniProt Q80TS7: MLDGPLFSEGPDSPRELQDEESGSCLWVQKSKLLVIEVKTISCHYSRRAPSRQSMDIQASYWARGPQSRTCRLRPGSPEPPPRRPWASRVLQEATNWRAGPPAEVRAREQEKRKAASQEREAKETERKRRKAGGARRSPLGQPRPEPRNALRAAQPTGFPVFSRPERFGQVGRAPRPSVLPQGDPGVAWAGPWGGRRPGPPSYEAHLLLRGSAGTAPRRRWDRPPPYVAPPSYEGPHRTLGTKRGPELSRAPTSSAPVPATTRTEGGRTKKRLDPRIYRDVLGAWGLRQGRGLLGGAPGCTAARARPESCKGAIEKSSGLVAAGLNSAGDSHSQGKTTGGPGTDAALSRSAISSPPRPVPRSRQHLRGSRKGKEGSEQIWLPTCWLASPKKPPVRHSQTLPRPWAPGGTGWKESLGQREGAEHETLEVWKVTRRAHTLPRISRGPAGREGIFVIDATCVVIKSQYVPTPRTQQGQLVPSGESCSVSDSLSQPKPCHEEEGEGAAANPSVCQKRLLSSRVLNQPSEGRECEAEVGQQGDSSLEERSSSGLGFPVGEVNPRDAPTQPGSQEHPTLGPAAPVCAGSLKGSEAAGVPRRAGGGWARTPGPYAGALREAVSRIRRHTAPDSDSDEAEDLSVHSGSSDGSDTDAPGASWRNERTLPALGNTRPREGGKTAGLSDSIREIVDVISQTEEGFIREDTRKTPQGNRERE
UniProt Q9QZS7, residues 37-1256: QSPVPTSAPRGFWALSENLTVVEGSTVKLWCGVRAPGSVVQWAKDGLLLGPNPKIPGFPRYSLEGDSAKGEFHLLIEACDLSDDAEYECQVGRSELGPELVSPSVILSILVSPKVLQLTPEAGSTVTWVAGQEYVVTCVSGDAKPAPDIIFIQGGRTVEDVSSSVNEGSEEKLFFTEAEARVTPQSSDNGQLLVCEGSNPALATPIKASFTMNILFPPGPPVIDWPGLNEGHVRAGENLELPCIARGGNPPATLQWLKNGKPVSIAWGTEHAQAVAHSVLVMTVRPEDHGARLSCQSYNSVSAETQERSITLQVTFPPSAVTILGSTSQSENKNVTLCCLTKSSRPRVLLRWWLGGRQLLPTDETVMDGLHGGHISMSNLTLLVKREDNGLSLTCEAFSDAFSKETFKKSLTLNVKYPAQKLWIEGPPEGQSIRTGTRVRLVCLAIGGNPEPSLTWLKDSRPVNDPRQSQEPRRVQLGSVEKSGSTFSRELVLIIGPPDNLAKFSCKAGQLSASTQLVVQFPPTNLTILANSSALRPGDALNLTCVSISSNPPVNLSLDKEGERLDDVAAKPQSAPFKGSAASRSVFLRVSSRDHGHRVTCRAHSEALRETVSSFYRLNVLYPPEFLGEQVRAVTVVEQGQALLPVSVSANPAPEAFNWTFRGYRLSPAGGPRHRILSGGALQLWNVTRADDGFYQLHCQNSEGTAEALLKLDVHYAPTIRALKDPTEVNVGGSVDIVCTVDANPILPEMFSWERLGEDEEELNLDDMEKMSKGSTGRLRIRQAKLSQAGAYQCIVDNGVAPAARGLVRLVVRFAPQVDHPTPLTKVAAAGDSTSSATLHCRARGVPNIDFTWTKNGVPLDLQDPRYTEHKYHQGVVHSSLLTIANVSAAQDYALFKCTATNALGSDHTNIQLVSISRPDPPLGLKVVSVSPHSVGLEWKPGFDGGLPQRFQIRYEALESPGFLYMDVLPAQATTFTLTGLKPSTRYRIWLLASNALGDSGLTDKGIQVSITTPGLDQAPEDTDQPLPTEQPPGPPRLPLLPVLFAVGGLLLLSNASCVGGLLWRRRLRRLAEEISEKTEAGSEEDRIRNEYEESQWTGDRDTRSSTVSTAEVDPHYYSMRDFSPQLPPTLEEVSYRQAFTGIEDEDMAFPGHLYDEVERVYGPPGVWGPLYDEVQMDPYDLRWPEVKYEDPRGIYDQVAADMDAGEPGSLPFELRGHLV
UniProt Q62844: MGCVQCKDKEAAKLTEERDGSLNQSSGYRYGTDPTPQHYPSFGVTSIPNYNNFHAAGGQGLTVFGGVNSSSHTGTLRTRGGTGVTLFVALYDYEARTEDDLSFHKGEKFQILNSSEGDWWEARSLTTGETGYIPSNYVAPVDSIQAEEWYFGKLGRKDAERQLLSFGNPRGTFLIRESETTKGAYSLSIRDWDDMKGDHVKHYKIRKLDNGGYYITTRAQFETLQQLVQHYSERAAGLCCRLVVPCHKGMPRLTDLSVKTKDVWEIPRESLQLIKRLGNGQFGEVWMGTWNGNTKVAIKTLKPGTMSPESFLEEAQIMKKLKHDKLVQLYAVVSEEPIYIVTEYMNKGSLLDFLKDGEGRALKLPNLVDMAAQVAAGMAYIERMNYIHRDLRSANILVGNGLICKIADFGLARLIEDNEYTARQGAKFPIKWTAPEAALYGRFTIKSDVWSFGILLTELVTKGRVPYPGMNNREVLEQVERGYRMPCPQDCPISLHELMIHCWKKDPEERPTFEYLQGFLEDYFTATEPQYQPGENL
UniProt O88382: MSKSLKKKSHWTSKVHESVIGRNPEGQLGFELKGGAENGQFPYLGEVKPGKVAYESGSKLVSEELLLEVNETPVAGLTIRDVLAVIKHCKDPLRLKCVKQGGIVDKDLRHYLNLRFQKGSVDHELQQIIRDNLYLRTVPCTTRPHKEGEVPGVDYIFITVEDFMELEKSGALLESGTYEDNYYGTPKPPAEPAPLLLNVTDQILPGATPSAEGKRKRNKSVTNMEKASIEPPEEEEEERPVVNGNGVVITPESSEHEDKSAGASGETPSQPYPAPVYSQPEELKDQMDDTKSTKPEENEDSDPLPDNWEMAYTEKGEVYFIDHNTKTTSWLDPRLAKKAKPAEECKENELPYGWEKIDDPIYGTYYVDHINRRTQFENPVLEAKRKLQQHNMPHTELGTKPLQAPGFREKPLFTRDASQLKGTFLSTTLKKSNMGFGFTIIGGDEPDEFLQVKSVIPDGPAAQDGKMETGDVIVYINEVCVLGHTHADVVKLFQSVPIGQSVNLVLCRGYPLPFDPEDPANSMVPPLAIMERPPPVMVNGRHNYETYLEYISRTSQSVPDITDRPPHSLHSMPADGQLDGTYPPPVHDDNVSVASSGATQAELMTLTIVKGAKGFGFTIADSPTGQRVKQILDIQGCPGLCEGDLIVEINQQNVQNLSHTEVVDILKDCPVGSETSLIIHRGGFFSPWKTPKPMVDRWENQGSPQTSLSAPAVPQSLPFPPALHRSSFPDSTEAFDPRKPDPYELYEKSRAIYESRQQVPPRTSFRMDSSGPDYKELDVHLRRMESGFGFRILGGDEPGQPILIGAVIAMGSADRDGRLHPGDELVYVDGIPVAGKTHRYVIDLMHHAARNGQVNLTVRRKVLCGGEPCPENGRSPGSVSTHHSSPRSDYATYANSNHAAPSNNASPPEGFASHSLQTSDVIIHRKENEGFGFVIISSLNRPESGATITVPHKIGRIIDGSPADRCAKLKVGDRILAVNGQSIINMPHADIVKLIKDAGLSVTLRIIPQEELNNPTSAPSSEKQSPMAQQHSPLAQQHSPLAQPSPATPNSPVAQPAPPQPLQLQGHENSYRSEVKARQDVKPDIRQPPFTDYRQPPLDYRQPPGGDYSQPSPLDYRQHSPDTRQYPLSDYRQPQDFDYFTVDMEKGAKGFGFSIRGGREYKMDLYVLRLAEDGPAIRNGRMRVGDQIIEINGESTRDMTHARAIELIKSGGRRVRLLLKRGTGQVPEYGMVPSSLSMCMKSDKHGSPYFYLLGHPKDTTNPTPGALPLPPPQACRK
UniProt O89039: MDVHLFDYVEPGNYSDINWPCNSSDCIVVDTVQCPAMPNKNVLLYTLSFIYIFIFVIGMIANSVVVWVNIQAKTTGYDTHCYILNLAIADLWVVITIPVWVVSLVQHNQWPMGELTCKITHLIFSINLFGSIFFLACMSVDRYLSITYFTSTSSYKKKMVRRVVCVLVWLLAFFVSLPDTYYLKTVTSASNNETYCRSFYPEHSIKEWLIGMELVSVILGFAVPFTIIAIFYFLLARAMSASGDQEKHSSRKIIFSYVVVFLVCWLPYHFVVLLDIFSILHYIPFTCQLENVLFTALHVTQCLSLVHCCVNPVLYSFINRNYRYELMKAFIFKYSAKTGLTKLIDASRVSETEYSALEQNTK
UniProt Q8CGU6, residues 35-708: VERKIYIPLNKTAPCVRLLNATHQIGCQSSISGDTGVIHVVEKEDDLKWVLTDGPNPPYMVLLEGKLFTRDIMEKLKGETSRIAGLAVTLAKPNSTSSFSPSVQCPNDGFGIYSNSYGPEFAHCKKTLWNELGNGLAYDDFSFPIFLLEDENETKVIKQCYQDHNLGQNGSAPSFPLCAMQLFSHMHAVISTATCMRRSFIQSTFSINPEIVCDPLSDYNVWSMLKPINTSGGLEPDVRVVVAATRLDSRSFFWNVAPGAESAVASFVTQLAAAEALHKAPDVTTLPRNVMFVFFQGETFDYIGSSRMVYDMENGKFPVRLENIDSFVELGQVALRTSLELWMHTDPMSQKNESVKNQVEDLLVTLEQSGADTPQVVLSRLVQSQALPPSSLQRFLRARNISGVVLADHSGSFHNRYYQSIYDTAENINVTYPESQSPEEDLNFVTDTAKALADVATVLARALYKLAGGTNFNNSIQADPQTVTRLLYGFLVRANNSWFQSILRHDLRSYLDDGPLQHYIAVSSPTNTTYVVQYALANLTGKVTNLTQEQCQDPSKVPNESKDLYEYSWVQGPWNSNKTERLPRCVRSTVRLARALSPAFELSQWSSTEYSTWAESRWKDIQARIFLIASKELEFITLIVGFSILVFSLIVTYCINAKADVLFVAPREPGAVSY
UniProt Q80W68, residues 48-789: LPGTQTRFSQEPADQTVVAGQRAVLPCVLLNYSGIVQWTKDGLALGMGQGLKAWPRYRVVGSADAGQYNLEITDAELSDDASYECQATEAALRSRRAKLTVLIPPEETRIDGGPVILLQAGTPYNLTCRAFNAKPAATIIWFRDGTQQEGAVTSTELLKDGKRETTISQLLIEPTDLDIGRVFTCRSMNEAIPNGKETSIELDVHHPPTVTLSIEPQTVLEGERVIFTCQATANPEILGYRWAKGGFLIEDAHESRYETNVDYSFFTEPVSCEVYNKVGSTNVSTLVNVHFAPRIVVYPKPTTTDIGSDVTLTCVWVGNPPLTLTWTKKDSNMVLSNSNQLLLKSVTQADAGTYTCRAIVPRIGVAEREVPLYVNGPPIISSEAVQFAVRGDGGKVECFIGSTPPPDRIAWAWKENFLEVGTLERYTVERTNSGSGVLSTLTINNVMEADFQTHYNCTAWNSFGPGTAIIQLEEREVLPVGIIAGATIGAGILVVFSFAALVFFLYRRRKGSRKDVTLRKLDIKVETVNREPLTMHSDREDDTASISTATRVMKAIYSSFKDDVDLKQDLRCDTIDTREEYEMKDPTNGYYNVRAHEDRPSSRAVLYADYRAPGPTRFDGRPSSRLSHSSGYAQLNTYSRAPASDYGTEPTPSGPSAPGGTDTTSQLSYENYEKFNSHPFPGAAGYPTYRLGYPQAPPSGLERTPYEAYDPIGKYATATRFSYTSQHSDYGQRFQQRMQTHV

What was measured:
[1] = biological target: T1, Podocin (mouse (endogenous in mouse glomeruli)) (UniProt Q91X05); test: affinity purification with mass spectrometry; two anti-Podocin ABs immobilised on magnetic beads, two hours with CL-47 or CL-91 solubilisates of glomerular membrane fractions of wildtype mice; control: Podocin knockout mice; eluates by nano-LC-MS/MS; specific: tnR >0.25 with both ABs in either of two solubilisation conditions
T1 sequence: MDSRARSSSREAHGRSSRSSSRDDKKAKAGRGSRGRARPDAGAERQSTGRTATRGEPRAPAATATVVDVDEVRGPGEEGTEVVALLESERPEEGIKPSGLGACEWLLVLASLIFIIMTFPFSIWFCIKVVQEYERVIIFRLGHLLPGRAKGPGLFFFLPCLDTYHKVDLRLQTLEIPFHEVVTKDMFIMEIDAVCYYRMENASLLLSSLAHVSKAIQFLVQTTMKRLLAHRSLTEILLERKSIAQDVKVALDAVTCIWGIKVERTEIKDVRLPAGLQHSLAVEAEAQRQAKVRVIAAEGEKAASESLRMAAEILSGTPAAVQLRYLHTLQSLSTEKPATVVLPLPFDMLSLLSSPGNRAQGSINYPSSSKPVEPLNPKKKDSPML

[2] = biological target: T2, Neph1 (not stated (endogenous in glomeruli of rat or mouse)) (UniProt Q6X936); test: affinity purification with mass spectrometry; three anti-Nephrin/Neph1 ABs immobilised on magnetic beads, two hours with CL-47 or CL-91 solubilisates of glomerular membrane fractions; eluates by nano-LC-MS/MS; specific: tnR >=0.2 against three target-unrelated ABs/IgG, in at least two anti-Nephrin/Neph1 APs
T2 sequence: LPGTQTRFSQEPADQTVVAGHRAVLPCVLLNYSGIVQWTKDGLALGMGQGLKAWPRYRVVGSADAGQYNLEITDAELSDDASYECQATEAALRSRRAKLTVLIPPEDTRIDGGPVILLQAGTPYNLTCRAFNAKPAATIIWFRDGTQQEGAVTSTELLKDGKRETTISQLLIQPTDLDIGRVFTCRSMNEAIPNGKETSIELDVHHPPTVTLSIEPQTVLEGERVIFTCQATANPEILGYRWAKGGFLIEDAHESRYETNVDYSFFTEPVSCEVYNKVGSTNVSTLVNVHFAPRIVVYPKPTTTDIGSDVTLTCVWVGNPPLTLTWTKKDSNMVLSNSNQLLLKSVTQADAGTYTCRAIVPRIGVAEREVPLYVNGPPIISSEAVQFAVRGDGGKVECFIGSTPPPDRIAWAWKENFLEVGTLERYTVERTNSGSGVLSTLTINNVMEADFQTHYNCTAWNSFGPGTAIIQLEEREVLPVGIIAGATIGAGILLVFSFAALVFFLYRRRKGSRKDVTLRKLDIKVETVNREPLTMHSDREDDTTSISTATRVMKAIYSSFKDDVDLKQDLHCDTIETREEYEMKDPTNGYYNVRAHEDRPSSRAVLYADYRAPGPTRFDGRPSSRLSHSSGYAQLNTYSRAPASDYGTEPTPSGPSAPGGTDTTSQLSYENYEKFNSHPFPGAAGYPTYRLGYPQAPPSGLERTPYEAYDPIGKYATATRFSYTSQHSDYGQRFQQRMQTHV

[3] = biological target: T3, Nephrin (not stated (endogenous in glomeruli of rat or mouse)) (UniProt Q9R044); test: as above
T3 sequence: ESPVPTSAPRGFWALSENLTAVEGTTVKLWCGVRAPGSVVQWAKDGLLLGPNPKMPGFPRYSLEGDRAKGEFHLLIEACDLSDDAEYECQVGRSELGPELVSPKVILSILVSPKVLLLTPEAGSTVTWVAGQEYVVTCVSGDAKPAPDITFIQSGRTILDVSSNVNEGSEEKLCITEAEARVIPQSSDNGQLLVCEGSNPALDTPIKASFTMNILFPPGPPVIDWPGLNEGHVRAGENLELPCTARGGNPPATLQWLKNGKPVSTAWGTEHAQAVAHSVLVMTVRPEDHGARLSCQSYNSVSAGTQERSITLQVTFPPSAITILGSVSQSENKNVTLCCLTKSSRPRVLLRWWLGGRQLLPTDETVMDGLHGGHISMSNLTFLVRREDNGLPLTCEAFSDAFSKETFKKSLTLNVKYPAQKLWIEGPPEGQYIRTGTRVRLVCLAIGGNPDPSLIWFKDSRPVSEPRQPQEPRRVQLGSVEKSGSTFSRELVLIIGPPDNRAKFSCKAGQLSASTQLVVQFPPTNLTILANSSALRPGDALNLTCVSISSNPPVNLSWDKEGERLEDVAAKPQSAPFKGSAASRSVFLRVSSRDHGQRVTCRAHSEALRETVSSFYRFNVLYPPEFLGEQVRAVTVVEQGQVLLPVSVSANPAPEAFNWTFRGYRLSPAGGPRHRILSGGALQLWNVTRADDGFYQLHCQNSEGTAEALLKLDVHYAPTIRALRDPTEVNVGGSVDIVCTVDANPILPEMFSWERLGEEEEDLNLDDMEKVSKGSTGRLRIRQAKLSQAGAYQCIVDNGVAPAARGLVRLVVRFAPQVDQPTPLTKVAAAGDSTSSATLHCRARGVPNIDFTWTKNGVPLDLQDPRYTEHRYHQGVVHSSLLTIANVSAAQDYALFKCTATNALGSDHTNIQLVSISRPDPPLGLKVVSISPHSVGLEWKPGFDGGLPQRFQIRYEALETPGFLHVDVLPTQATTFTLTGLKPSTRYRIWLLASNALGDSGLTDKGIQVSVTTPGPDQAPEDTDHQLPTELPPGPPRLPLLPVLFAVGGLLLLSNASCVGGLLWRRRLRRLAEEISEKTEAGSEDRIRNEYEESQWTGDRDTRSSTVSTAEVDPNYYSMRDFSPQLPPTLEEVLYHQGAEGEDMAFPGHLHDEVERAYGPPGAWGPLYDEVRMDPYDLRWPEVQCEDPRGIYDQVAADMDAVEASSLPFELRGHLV

binding [1]	binding [2]	binding [3]	Substance
binds			ABC sub-family A member 9 (from UniProt Q8K449 1-1623)
	binds	binds	ANPRA (from UniProt P18910 29-1057)
binds			Dendrin (from UniProt Q80TS7 1-710)
binds			Nephrin (from UniProt Q9QZS7 37-1256)
binds			MAGI-2 (from UniProt Q9WVQ1 1-1275)
	binds	binds	tyrosine kinase Fyn (from UniProt Q62844 1-537)
binds			Integrin alpha-3 (mouse (endogenous in mouse glomeruli))
	binds	binds	Integrin alpha-V
binds			ANPRA (from UniProt P18293 29-1057)
	binds	binds	Amyloid precursor protein
binds			IQGAP2 (from UniProt Q3UQ44 1-1575)
	binds	binds	PMCA1 (from UniProt P11505 1-1220)
	binds	binds	MAGI-2 (from UniProt O88382 1-1277)
	binds	binds	Atypical chemokine receptor 3 (from UniProt O89039 1-362)
	binds	binds	Nicastrin (from UniProt Q8CGU6 35-708)
binds			Neph1 (from UniProt Q80W68 48-789)
